In the supplement of paper PMC10849652:
The other results are listed elsewhere or left out.

The chains behind the UniProt entries cited, without tags or fusion partners. Where a name states a change or a piece, a line headed by the entry shows the natural chain unless it says otherwise.
UniProt Q9C0B7: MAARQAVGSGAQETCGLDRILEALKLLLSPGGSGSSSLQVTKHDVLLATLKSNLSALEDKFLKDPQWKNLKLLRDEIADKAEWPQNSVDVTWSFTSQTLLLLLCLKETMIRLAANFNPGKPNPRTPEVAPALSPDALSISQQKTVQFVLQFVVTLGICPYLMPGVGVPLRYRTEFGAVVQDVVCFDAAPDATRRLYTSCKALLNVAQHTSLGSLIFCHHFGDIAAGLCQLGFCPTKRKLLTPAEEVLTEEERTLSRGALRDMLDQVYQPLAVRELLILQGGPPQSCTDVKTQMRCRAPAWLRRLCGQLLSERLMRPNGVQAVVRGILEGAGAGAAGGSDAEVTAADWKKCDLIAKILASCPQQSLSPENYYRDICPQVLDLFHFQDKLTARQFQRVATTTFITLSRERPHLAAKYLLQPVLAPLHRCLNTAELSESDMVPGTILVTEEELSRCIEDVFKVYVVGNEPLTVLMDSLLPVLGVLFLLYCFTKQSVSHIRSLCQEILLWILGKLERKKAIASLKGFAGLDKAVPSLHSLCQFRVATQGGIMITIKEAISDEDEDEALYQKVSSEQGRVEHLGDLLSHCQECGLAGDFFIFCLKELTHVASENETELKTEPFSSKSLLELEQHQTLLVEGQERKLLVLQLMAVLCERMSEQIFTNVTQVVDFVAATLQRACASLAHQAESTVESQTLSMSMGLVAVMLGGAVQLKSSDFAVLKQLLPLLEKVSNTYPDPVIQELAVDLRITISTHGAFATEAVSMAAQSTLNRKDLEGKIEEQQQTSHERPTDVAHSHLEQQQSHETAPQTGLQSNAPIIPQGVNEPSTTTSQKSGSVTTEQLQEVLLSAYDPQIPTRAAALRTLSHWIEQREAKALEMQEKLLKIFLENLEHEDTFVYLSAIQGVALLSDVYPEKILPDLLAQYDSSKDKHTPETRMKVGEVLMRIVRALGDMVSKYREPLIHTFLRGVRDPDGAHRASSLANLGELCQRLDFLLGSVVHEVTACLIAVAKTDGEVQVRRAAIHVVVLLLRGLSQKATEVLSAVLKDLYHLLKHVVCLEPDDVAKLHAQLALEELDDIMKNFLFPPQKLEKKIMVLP
UniProt Q8TC07: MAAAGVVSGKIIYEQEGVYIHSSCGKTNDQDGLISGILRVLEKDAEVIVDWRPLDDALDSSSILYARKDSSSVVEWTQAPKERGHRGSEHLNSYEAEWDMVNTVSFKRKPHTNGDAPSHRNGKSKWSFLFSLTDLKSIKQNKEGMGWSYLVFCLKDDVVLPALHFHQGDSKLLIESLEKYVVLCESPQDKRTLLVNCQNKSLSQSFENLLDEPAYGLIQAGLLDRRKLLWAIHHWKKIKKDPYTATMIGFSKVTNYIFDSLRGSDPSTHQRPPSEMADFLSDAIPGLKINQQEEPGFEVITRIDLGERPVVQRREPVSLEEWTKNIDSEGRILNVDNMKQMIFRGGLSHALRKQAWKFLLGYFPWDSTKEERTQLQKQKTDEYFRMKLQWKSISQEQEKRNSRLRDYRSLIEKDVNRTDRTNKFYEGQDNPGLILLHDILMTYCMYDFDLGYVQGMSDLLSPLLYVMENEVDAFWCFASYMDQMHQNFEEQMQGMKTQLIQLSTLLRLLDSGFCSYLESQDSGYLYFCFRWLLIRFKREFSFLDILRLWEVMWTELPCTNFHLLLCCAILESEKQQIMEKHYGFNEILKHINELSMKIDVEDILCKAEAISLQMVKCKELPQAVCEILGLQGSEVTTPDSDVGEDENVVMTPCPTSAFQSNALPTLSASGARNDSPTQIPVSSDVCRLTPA
UniProt Q9NXF1: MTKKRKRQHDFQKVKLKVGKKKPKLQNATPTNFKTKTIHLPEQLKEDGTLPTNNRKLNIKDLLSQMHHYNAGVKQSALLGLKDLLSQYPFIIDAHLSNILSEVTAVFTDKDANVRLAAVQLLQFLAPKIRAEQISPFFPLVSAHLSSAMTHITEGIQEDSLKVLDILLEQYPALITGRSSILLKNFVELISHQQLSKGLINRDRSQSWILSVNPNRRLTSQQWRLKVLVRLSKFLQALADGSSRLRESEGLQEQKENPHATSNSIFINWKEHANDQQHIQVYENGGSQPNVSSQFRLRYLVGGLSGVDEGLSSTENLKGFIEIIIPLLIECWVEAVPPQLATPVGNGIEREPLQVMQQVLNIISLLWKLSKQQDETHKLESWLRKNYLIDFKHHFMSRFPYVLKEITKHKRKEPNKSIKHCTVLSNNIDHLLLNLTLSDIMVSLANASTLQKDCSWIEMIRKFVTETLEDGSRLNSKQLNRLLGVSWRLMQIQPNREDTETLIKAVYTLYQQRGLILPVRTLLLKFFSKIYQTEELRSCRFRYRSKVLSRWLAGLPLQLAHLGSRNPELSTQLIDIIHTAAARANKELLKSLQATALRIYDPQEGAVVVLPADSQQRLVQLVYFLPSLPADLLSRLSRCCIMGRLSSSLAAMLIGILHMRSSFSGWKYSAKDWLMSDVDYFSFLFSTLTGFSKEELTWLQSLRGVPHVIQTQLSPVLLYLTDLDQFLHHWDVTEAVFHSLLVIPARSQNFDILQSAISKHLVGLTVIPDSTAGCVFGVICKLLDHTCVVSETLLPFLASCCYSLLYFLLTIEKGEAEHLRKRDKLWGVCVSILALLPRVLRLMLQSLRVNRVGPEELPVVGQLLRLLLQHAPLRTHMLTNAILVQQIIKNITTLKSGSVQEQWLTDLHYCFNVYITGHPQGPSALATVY
UniProt Q96BZ9: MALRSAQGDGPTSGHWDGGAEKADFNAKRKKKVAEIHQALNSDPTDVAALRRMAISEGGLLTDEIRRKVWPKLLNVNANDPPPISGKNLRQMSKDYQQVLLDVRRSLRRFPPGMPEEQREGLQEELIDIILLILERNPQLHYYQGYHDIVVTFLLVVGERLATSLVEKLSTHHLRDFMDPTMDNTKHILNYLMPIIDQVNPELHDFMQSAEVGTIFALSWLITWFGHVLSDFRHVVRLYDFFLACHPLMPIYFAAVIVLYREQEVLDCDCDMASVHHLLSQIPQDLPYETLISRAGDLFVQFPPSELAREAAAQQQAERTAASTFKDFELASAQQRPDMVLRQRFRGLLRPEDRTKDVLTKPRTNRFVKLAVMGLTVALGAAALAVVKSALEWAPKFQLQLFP
UniProt Q9Y6J9: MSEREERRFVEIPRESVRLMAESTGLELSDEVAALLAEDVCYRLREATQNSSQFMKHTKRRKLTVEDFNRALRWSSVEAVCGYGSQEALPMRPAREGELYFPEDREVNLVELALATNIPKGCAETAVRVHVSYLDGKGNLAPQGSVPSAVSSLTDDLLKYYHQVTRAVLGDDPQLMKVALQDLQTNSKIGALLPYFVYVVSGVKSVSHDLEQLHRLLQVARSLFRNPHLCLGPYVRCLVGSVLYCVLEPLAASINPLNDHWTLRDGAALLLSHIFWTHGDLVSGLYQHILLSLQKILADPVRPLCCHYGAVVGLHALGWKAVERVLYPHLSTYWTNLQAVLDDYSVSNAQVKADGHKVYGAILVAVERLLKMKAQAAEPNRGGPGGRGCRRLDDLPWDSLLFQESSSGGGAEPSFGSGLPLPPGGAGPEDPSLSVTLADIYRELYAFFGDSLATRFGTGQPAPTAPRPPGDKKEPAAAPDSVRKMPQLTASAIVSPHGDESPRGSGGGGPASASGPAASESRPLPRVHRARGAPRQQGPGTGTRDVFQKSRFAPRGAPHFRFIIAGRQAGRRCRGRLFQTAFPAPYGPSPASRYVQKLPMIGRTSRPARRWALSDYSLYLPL
UniProt Q15554: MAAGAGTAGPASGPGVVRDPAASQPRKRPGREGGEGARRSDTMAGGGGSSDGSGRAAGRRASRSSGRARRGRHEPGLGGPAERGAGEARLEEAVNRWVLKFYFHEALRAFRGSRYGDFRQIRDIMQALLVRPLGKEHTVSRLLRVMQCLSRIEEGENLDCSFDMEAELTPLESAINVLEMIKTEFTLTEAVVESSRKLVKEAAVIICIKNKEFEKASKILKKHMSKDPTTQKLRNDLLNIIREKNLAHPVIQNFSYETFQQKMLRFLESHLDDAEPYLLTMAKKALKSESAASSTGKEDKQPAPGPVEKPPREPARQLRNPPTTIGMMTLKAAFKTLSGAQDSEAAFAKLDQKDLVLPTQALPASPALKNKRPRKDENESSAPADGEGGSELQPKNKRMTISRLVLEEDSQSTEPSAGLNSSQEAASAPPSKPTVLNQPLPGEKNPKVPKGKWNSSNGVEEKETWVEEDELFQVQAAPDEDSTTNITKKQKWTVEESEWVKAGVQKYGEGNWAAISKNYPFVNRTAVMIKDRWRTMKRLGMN
UniProt Q8TEA7: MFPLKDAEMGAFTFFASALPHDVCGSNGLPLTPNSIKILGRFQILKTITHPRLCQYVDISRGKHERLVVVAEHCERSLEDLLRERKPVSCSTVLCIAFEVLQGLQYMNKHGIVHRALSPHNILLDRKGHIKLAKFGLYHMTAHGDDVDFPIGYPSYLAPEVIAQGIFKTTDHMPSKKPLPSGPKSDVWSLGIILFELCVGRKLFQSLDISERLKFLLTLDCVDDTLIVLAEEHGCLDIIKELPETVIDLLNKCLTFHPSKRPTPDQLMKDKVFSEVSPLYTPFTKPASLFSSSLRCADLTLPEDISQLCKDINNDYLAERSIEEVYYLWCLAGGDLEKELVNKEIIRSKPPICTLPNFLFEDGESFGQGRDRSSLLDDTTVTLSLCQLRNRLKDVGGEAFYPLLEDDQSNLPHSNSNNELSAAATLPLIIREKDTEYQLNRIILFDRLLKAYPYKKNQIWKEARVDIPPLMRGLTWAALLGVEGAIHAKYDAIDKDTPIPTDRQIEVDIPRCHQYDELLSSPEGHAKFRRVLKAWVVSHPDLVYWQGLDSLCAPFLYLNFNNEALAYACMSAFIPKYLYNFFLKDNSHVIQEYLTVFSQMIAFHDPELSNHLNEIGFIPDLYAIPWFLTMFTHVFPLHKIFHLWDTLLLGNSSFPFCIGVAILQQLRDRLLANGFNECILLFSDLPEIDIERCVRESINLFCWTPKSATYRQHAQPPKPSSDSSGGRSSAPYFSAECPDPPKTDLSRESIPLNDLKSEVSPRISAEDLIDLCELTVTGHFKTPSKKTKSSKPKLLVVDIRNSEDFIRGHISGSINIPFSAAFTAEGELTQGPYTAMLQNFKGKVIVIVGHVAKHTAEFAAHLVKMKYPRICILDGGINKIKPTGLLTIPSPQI
UniProt Q9UBB9: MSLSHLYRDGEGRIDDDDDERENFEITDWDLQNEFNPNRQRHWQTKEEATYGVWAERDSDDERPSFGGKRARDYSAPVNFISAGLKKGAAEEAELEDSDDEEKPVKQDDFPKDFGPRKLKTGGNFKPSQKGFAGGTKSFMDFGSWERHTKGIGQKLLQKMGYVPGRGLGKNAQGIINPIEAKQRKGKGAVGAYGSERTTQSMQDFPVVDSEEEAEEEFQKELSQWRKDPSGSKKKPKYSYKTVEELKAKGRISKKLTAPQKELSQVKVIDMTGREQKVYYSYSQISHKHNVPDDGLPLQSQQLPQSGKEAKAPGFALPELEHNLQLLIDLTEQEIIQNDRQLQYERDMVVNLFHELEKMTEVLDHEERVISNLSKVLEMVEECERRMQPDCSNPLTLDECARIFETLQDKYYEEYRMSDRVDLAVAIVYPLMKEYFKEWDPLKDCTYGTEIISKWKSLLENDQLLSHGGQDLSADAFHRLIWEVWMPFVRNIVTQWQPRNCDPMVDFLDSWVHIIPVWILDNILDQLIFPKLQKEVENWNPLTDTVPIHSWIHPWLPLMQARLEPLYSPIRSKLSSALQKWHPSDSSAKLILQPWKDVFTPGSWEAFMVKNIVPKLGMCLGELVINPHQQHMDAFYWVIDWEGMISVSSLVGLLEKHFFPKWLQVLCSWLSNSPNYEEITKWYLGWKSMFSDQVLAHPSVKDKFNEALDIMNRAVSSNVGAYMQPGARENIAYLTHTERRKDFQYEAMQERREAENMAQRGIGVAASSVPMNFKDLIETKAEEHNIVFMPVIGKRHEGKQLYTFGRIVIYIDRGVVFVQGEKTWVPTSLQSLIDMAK
UniProt Q14186: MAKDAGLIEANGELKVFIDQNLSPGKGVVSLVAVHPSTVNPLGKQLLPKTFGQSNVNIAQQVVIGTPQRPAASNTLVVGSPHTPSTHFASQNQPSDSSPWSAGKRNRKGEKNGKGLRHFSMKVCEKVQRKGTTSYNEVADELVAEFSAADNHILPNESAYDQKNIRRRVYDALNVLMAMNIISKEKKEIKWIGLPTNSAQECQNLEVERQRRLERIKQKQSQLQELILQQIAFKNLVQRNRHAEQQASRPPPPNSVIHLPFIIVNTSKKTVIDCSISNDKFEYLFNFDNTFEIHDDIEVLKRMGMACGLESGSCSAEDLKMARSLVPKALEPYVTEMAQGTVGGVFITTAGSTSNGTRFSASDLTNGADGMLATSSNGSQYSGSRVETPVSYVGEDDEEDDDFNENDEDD

Compound: Cn1cc(-c2ccc3c(c2)CCN3C(=O)Cc2cccc(C(F)(F)F)c2)c2c(N)ncnc21
Assay: log2 fold change, soluble protein after heating vs DMSO (PISA); higher = thermal stabilisation; K562 lysate, 10 uM; active = over 0.2 and 3.5 SD of the protein, either way, in both replicates (recomputed)
In short: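 K562 pellets were dounce-homogenised in PBS pH 7.4 with 1 mM MgCl2, and the crude extract at 1 mg/mL protein was treated with 10 μM compound for 30 min. Aliquots were heated for 3 min across 48°C-58°C, pooled, and brought to 0.5% NP-40 at 4°C; soluble protein was the supernatant after 21,000xg for 90 min. Soluble protein was quantified by TMTpro 16plex LC-MS/MS with channel sums equalised, and reported as log2 fold change in thermal stability against DMSO controls, with values from duplicates.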

log2 fold change, inactive:
TBC1D13 (UniProt Q9NVG8) 0.009
TBC1D2 (UniProt Q9BYX2) 0.053
TEX264 (UniProt Q9Y6I9) -0.09
TANGO6 (UniProt Q9C0B7) 0.025
TAOK3 (UniProt Q9H2K8) 0
TANK (UniProt Q92844) 0.088
TBC1D15 isoform 3 (UniProt Q8TC07) 0.02
TEX10 (UniProt Q9NXF1) 0.009
TBC1D20 isoform 3 (UniProt Q96BZ9) -0.053
TBC1D2B (UniProt Q9UPU7) 0.055
TAF6L (UniProt Q9Y6J9) 0.056
TAOK1 (UniProt Q7L7X3) -0.075
TBP (UniProt P20226) 0.004
TARS2 (UniProt Q9BW92) 0.054
TERF2 (UniProt Q15554) 0.055
TBCK (UniProt Q8TEA7) -0.03
TCEAL4 isoform 2 (UniProt Q96EI5) -0.012
TBC1D22B (UniProt Q9NU19) -0.068
TBC1D8B (UniProt Q0IIM8) -0.042
TBC1D10A (UniProt Q9BXI6) -0.128
TFIP11 (UniProt Q9UBB9) 0.01
TFDP1 (UniProt Q14186) 0
TEPSIN, A0A1B0GV70 -0.005

Reprinted at random: 2 records from the list.
log2 fold change, inactive:
TFIP11 (UniProt Q9UBB9) 0.01
TBC1D2B (UniProt Q9UPU7) 0.055
